PubChem BioAssay AID686938, Drosophila RNAi Screening Center, 2013
Assay: 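Knock-downs reducing store-operated calcium influx in Drosophila cells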 (primary screen). Cells: Drosophila S2R+ cells. Reagents: long dsRNA against Drosophila genes, about 0.25 µg dsRNA per well, roughly 10,000 cells. Timing: 5 days of knock-down before the calcium assay. Treatment: thapsigargin (SERCA pump blocker) to empty calcium stores; entry signal taken 4 min after adding it. Detection: 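Duplicate raw fluo-4 intensities per well from a plate reader, at rest and four minutes after thapsigargin emptied calcium stores; entry-to-rest ratio filled for only some wells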. Reading the numbers: calcium entry signal: higher = stronger calcium signal after store depletion; resting calcium signal: higher = higher resting calcium signal. Units: calcium entry signal in fluorescence units; resting calcium signal in fluorescence units. Hit rule: 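Called when the plate z-score of the entry-to-rest ratio, mean of duplicates, falls below −3; wells with low overall dye signal (Fmax z below −2) or more than five off-targets excluded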. Calls: active = strongly reduced calcium entry; inactive = no strong reduction.
The deposit covers about 23,000 reagents; below is a random part of those that have a named target and a result. Of all reagents, 75 (0.33%) were called active. 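Raw plate signals without normalisation; calls rest on plate z-scores that were not deposited; ratio present for only 364 wells.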 A number with no mark means an inactive call. Not given: the dose of the treatment.

{"gene": "CG1889", "dsRNA": "DRSC18195", "calcium entry signal, replicate 1": 4.06e7, "calcium entry signal, replicate 2": 3.91e7, "resting calcium signal, replicate 1": 1.92e7, "resting calcium signal, replicate 2": 1.71e7}
{"gene": "CG8547", "dsRNA": "DRSC07211", "calcium entry signal, replicate 1": 3.46e7, "calcium entry signal, replicate 2": 4.48e7, "resting calcium signal, replicate 1": 1.52e7, "resting calcium signal, replicate 2": 2.06e7}
{"gene": "CG16826", "dsRNA": "DRSC02527", "calcium entry signal, replicate 1": 2.59e7, "calcium entry signal, replicate 2": 1.67e7, "resting calcium signal, replicate 1": 1.39e7, "resting calcium signal, replicate 2": 8.05e6}
{"gene": "CG5577", "dsRNA": "DRSC10519", "calcium entry signal, replicate 1": 4.07e7, "calcium entry signal, replicate 2": 4.22e7, "resting calcium signal, replicate 1": 1.92e7, "resting calcium signal, replicate 2": 2.91e7}
{"gene": "RpL9", "dsRNA": "DRSC03418", "calcium entry signal, replicate 1": 1.28e7, "calcium entry signal, replicate 2": 1.45e7, "resting calcium signal, replicate 1": 8.73e6, "resting calcium signal, replicate 2": 9.37e6}
{"gene": "SNCF", "dsRNA": "DRSC10115", "calcium entry signal, replicate 1": 2.77e7, "calcium entry signal, replicate 2": 4.27e7, "resting calcium signal, replicate 1": 1.50e7, "resting calcium signal, replicate 2": 2.07e7}
{"gene": "CG1943", "dsRNA": "DRSC12576", "calcium entry signal, replicate 1": 4.36e7, "calcium entry signal, replicate 2": 3.47e7, "resting calcium signal, replicate 1": 2.26e7, "resting calcium signal, replicate 2": 1.64e7}

Look-ups from above.
For “resting calcium signal, replicate 2”, CG16826 [DRSC02527] has 8.05e6
Under “resting calcium signal, replicate 2”, CG1943 [DRSC12576] reads 1.64e7

Further entries follow:
{"gene": "CG2162", "dsRNA": "DRSC08557", "calcium entry signal, replicate 1": 3.59e7, "calcium entry signal, replicate 2": 2.15e7, "resting calcium signal, replicate 1": 2.52e7, "resting calcium signal, replicate 2": 9.68e6}
{"gene": "CG13300", "dsRNA": "DRSC09974", "calcium entry signal, replicate 1": 3.37e7, "calcium entry signal, replicate 2": 4.67e7, "resting calcium signal, replicate 1": 1.72e7, "resting calcium signal, replicate 2": 1.90e7}
{"gene": "CG13392", "dsRNA": "DRSC02262", "calcium entry signal, replicate 1": 2.97e7, "calcium entry signal, replicate 2": 4.68e7, "resting calcium signal, replicate 1": 1.54e7, "resting calcium signal, replicate 2": 1.83e7}
{"gene": "HPS4", "dsRNA": "DRSC06906", "calcium entry signal, replicate 1": 3.87e7, "calcium entry signal, replicate 2": 5.28e7, "resting calcium signal, replicate 1": 1.69e7, "resting calcium signal, replicate 2": 2.40e7}
{"gene": "NijC", "dsRNA": "DRSC14851", "calcium entry signal, replicate 1": 3.11e7, "calcium entry signal, replicate 2": 3.64e7, "resting calcium signal, replicate 1": 1.74e7, "resting calcium signal, replicate 2": 1.71e7}
